Experimental data from PubChem BioAssay AID2284171 (EPA ToxCast).
The source calls these results inconclusive, neither active nor inactive. Rule for the calls: active = hit-call score of the fitted dose curve at least 0.9, where 1 is the maximum; inconclusive = response in the unintended direction; inactive = score below 0.9. Potencies of inconclusive entries are doubtful fits and often do not repeat.

assay: ERF_FR_GPCR_rPY2: Eurofins (ERF) G Protein-Coupled Receptor (GPCR) Radioligand Binding LeadHunter Assay for rat P2Y Receptor (Non-Selective) Agonism
Protocol: ERF_FR_GPCR_rPY2 is a biochemical, single-readout assay that uses extracted gene-proteins in a cell-free assay. Measurements were taken 1 hour after chemical dosing in a 96-well plate. See Non-Selective Rat P2Y GPCR Binding (Agonist Radioligand) Assay, Cerep.ERF_FR_GPCR_rPY2 is an assay component calculated from the ERF_FR_GPCR_rPY2 assay. It is designed to measure radioligand binding using a type of binding reporter as detected by scintillation counting with radiometry technology.Data from the assay component ERF_FR_GPCR_rPY2 was analyzed at the assay endpoint, ERF_FR_GPCR_rPY2, in the positive analysis fitting direction relative to DMSO as the negative control and baseline of activity. Using a type of binding reporter, gain-of-signal activity can be used to understand changes in binding as they relate to gene P2RY1. To generalize the intended target to other relatable targets, this assay endpoint is annotated to the gpcr intended target family, where the subfamily is P2Y.
Rat cells are incubated for 60 minutes at room temprature with [35S]dATPalpha S (10 nM) ligand and Datpalphas as control inhibitor. Test Sample Requirements: Minimum for 1) Screen: 60 ul of 10 mM stock -OR- 1 mg (pre-weighed) for 10 uM final testing. 2) Dose Response: 90 ul of 10 mM stock -OR- 1 mg (pre-weighed) for a top concentration at 10 uM.

| Structure (SMILES) | AC50 |
| --- | --- |
| CCCCC[C@H](O)CC(=O)CCc1ccc(O)c(OC)c1 | inconclusive: 6.04 nM |
